Data reported in article PMC10665399.
These are yes or no findings as the source states them, for the method shown. Binding seen in cells or lysates may run through a third protein. Here binding means that the protein was enriched with, or labelled near, the bait; the list need not be complete. Tags and fused reporters may be left off the sequences shown.

The chains behind the UniProt entries cited, without tags or fusion partners.
UniProt Q92879: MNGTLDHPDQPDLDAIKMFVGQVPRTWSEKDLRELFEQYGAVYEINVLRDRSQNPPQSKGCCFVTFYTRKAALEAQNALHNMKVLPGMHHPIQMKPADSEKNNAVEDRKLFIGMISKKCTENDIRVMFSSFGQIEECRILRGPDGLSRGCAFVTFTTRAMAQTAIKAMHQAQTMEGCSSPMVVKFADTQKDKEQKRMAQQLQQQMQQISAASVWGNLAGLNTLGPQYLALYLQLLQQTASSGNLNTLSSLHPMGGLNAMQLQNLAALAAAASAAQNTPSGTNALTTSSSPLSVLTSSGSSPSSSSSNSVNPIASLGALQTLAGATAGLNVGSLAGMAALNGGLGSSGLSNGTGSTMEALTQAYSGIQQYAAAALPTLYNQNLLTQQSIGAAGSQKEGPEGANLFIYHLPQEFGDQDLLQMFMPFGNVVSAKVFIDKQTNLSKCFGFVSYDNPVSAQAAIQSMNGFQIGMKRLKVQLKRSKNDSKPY
UniProt P05198: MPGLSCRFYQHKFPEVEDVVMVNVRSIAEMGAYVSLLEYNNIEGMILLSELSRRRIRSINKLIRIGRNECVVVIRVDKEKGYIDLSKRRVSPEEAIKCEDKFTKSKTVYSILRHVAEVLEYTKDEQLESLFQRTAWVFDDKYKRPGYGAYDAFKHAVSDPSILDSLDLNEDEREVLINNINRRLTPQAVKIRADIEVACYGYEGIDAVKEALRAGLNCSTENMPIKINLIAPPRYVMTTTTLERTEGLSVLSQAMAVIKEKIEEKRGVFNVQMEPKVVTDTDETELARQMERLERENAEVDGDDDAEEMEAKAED
UniProt Q9H7E9: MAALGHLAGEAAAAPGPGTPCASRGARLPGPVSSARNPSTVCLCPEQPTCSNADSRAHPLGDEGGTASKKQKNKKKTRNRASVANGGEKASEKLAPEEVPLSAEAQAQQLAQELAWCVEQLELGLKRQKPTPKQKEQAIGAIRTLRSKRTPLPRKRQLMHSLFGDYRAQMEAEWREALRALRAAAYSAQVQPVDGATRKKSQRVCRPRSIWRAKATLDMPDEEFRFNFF

T1: RBM42-APEX2 fusion (biallelic knock-in at the endogenous RBM42 gene, HCT116^RBM42-APEX2) (human) (UniProt Q9BTD8)
T1 sequence: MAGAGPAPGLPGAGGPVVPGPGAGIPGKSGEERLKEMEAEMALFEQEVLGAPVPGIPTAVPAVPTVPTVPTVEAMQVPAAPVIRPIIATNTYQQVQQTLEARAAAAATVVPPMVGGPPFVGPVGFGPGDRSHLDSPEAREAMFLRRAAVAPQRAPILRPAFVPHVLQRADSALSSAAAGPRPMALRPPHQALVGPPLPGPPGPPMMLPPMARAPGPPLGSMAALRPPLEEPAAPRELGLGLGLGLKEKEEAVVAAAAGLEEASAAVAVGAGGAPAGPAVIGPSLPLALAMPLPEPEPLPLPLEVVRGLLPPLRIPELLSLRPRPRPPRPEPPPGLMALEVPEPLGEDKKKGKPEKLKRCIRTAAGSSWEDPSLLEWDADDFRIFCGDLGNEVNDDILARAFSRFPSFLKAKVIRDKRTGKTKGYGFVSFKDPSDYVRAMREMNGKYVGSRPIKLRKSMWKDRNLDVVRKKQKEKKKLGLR


Target: T1, RBM42-APEX2 fusion (biallelic knock-in at the endogenous RBM42 gene, HCT116^RBM42-APEX2) (human)
Experiment: proximity labelling; APEX2 knocked in at the C-terminus of endogenous RBM42 in HCT116 cells; DMSO or VP16 (10 µM, 24 h); biotin phenol, then H2O2; biotinylated proteins enriched and analysed by LC-MS/MS against control HCT116 cells

Molecule | binding
CUG binding protein 1 (CUGBP1) (from UniProt Q92879 1-486) | binds
eukaryotic translation initiation factor 2 subunit 1 (eIF2a) (from UniProt P05198 1-315) | binds
C8orff33 (from UniProt Q9H7E9 1-229) | binds
hnRNP K (from UniProt P61978 1-463) | binds
LSM4 (protein, UniProt Q9Y4Z0 1-139) MLPLSLLKTAQNHPMLVELKNGETYNGHLVSCDNWMNINLREVICTSRDGDKFWRMPECYIRGSTIKYLRIPDEIIDMVKEEVVAKGRGRGGLQQQKQQKGRGMGGAGRGVFGGRGRGGIPGTGRGQPEKKPGRQAGKQ | binds
